Experimental data published in publication PMC10191625.
No constants are given. Whether binding was seen depends on the method and setting. In cells and extracts the contact can be indirect. A result given as binding can be weak or reduced; the word gives no strength. Sequences can lack the tags named with a protein.

Biological target: Flag.ADA-2 (Neurospora crassa)
Experiment: co-IP; Flag.ADA-2 co-expressed with the Myc-tagged partner in the WT strain; immunoprecipitation with Flag antibody, GammaBind G Sepharose, 2 mg protein extract; cultures in constant light, with or without 3 mM 3-AT; blot for Myc

B1: Myc.CPC-1 (protein, UniProt P11115 1-270)
chain: MFSELDLLDFATFDGGATTEAAFASPANQTYDLSSSVPSSVSNMGTVSPQELLLHEPYLSAPSSTALTALTSPSLFDGSPDFDTFDISPNFGHSDLENPDTWFSLFPDATPLPQAQAQVQTQPQTQTQTEQQTQPLPELVQSVQPTVQPTVEQTVHSVEASPATPSEDLEVLSPGSGHQRRKSSVSPPSGRHSSVAGVGSRRRDKPLPPIIVEDPSDVVAMKRARNTLAARKSRERKAQRLEELEAKIEELIAERDRWKNLALAHGASTE
  binding: binds
